In patent publication US7718598 (dated 2010):

Experiments:
[1] = general procedure: Fmoc solid-phase peptide synthesis; Wang resin; trityl resin; HBTU/DIEA; BOP/DIEA for cyclisation; conditions: for isolated yield: whole synthesis, scale of the general procedure 0.1 mmole (STAT-91)
[2] = general procedure: Fmoc solid-phase peptide synthesis; Wang resin; HBTU/DIEA; BOP/DIEA for cyclisation; conditions: whole synthesis
[3] = general procedure: Fmoc solid-phase peptide synthesis; trityl resin; HBTU/DIEA; BOP/DIEA for cyclisation; conditions: whole synthesis
[4] = Fmoc solid-phase peptide synthesis; Fmoc-Val-Wang resin; HBTU/DIEA; BOP/DIEA for cyclisation; conditions: whole synthesis, scale 0.1 mmole

**Q.** Which outcome ([1]; cyclisation step) does the source give for cyclo(AFLPA) here?
**A.** Its outcome is “only cyclic dimer and some trimer were obtained, but no target monocyclic product”.

**Q.** What about the step yield ([1]; late stage modification step, run 1) of the same substance?
**A.** Its step yield is 52% and 28%.

**Q.** Which results are given for HS—(CH2)2-Tyr-Arg-Phe-Gly-OH?
**A.** isolated mass [2]: 70 mg; isolated yield [1]: 45% yield

**Q.** For cyclo(YRFG), which difficulty met ([1]; late stage modification step) is on record?
**A.** The difficulty met was “Photolysis of this product in MeOH/AcOH was slow and yielded impure cyclo[Tyr-Arg-Phe-Gly]”.

**Q.** What about the step yield ([1]; late stage modification step, photol. step) of the same substance?
**A.** The step yield was 41%.

**Q.** Which results are given for “N-(2-hydroxy-6-nitrobenzyl)-Ala-Phe-Leu-Pro-Ala-OH”?
**A.** isolated mass [3]: 85 mg; isolated yield [1]: 63% yield

**Q.** What does the source list for “N-(2-hydroxy-5-nitrobenzyl)-Ala-Phe-Leu-Pro-Ala-OH”?
**A.** isolated mass [3]: 114 mg; isolated yield [1]: 85% yield

**Q.** With cyclo-[(HnB)Tyr-Arg Phe-Gly] as the substance, how does the cyclisation yield ([1]; cyclisation step) read?
**A.** The cyclisation yield was 40%.

**Q.** Which isolated mass [2] does the source give for HS—(CH2)2-Ala-Phe-Leu-Pro-Ala-OH here?
**A.** Its isolated mass is 25 mg.

**Q.** And the isolated yield [1]?
**A.** Its isolated yield is 22% yield.

**Q.** For TGYIKTELISV, which difficulty met [4] is on record?
**A.** The difficulty met was “no appreciable amount (<1%) of the target”.

Where “and” joins values, the source holds several entries; their conditions need not be identical. Equal values may be shown once. For some assays here: End groups of sequences in plain letters are not given here.
